Data reported in publication PMC5047681.
These are yes or no findings as the source states them, for the method shown. In cells and extracts the contact can be indirect. Some entries that bind do so weakly or less than the wild type.

Target: T1, Ras-associated binding protein 11b (mouse (endogenous in primary hippocampal neurons)) (UniProt P46638)
T1 sequence: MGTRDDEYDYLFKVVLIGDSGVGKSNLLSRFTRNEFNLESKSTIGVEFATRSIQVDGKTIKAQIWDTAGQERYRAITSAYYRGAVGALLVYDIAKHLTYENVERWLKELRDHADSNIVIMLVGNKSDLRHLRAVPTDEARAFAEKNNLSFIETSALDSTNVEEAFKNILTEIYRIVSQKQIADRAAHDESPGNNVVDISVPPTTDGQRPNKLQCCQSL
Experiment: co-IP; lysate of DIV12 mouse hippocampal neurons (untreated controls or treated with 2 ng/ml TGF-β2); non-denaturing lysis buffer (50 mM Tris-HCl pH 7.4, 300 mM NaCl, 5 mM EDTA, 1% Triton X-100); anti-Rab11b or anti-KCC2 antibody on protein-A-Sepharose beads, overnight at 4°C; immunoblot for the other protein

binding: binds
B1: K+-Cl- co-transporter KCC2 (protein, UniProt Q91V14-2 1-1115)
chain: MLNNLTDCEDGDGGANPGDGNPKESSPFINSTDTEKGREYDGRNMALFEEEMDTSPMVSSLLSGLANYTNLPQGSREHEEAENNEGGKKKPVQAPRMGTFMGVYLPCLQNIFGVILFLRLTWVVGIAGIMESFCMVFICCSCTMLTAISMSAIATNGVVPAGGSYYMISRSLGPEFGGAVGLCFYLGTTFAGAMYILGTIEILLAYLFPAMAIFKAEDASGEAAAMLNNMRVYGTCVLTCMATVVFVGVKYVNKFALVFLGCVILSILAIYAGVIKSAFDPPNFPICLLGNRTLSRHGFDVCAKLAWEGNETVTTRLWGLFCSSRLLNATCDEYFTRNNVTEIQGIPGAASGLIKENLWSSYLTKGVIVERRGMPSVGLADGTPVDMDHPYVFSDMTSYFTLLVGIYFPSVTGIMAGSNRSGDLRDAQKSIPTGTILAIATTSAVYISSVVLFGACIEGVVLRDKFGEAVNGNLVVGTLAWPSPWVIVIGSFFSTCGAGLQSLTGAPRLLQAISRDGIVPFLQVFGHGKANGEPTWALLLTACICEIGILIASLDEVAPILSMFFLMCYMFVNLACAVQTLLRTPNWRPRFRYYHWTLSFLGMSLCLALMFICSWYYALVAMLIAGLIYKYIEYRGAEKEWGDGIRGLSLSAARYALLRLEEGPPHTKNWRPQLLVLVRVDQDQNVVHPQLLSLTSQLKAGKGLTIVGSVLEGTFLDNHPQAQRAEESIRRLMEAEKVKGFCQVVISSNLRDGVSHLIQSGGLGGLQHNTVLVGWPRNWRQKEDHQTWRNFIELVRETTAGHLALLVTKNVSMFPGNPERFSEGSIDVWWIVHDGGMLMLLPFLLRHHKVWRKCKMRIFTVAQMDDNSIQMKKDLTTFLYHLRITAEVEVVEMHESDISAYTYEKTLVMEQRSQILKQMHLTKNEREREIQSITDESRGSIRRKNPANPRLRLNVPEETACDNEEKPEEEVQLIHDQSAPSCPSSSPSPGEEPEGERETDPEVHLTWTKDKSVAEKNKGPSPVSSEGIKDFFSMKPEWENLNQSNVRRMHTAVRLNEVIVNKSRDAKLVLLNMPGPPRNRNGDENYMEFLEVLTEQLDRVMLVRGGGREVITIYS
